No constants are given. Whether binding was seen depends on the method and setting. Some results given as binding are weak or reduced against the parent protein; the word gives no strength.
Tests used:
[1] = biological target: recombinant human Axl-Fc (R and D systems, cat N° 154AL/CF) (human) (UniProt P30530); assay: ELISA on coated rhAxl-Fc, detection with goat anti-mouse IgG-HRP and TMB
[2] = biological target: recombinant human Axl-Fc (R and D systems, cat N° 154AL/CF) (human) (UniProt P30530); assay: ELISA on coated rhAxl-Fc
[3] = biological target: recombinant human Axl-Fc (R and D systems, cat N° 154AL/CF) (human) (UniProt P30530); assay: competition ELISA: rhAxl-Fc pre-incubated with the antibody, then loaded on coated rhGas6; bound rhAxl-Fc detected with anti-human IgG-HRP

Amino acid sequences for entries named in this document (tags omitted). A change or cut given only in a name is not applied to a line headed by its entry. Chains listed by the source or under a name are the forms on record and can include a tag or linker.
recombinant human Axl-Fc (R and D systems, cat N° 154AL/CF) (P30530, form named): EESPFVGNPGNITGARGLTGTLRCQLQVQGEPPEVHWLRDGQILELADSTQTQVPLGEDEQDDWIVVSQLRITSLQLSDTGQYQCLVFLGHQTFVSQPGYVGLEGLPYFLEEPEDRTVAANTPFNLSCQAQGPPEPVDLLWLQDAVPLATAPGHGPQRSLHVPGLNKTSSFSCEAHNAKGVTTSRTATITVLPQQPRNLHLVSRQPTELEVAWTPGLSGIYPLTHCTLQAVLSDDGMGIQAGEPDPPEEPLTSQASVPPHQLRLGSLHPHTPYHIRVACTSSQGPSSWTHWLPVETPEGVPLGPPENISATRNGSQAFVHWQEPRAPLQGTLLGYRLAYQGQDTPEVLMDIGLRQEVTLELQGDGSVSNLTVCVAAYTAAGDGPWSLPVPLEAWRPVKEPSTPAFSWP

Measured: binding

B1: 1613F12 (antibody, V domains shown)
VH: EVHLQQSGAELVKPGASVKLSCTASGFNIRDTYIHWVKQRPEQGLEWIGRLDPANGHTKYGPNFQGRATMTSDTSSNTAYLQLSSLTSEDTAVYYCARGAYYYGSSGLFYFDYWGQGTTLSVSS
VL: DVQITQSPSYLATSPGETITINCRASKSISKYLAWYQEKPGKTNKLLIYSGSTLQSGVPSRFSGSGSGTDFTLTISSLEPEDFAMYFCQQHHEYPLTFGAGTELELK
notes: also called 1613F12 antibody; 1613F12 Mab
binds: all assays above

Source: patent publication US20140141023A1 (PIERRE FABRE MEDICAMENT, published 2014)
